Data from the supplement of paper PMC10849652.
This is one part of the list.

By UniProt entry, the sequences of proteins in these tests, tags left out. Where a name states a change or a piece, a line headed by the entry shows the natural chain unless it says otherwise.
UniProt Q9UKA9: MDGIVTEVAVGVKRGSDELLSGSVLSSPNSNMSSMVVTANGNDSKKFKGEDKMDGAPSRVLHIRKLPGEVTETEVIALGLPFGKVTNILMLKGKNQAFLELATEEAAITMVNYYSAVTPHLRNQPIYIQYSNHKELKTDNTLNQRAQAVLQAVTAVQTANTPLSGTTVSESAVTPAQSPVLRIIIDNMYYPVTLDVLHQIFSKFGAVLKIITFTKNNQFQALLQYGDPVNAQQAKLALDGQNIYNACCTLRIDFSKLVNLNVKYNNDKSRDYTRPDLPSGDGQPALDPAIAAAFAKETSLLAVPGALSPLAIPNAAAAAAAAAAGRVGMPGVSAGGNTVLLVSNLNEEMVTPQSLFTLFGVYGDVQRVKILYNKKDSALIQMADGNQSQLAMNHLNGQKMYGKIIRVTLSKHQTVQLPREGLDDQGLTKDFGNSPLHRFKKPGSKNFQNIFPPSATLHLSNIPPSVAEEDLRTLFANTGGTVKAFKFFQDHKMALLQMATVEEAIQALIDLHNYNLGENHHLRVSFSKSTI
UniProt P43115: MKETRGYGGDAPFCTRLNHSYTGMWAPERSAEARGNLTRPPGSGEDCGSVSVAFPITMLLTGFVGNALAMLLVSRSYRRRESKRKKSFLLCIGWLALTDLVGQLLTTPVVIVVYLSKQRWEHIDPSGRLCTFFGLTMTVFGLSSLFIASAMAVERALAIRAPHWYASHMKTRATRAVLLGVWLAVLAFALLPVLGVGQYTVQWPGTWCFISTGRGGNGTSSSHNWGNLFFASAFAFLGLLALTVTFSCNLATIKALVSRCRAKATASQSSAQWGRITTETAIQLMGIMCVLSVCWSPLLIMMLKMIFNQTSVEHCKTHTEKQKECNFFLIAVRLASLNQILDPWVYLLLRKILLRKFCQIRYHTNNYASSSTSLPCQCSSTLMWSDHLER
UniProt Q9Y3T6: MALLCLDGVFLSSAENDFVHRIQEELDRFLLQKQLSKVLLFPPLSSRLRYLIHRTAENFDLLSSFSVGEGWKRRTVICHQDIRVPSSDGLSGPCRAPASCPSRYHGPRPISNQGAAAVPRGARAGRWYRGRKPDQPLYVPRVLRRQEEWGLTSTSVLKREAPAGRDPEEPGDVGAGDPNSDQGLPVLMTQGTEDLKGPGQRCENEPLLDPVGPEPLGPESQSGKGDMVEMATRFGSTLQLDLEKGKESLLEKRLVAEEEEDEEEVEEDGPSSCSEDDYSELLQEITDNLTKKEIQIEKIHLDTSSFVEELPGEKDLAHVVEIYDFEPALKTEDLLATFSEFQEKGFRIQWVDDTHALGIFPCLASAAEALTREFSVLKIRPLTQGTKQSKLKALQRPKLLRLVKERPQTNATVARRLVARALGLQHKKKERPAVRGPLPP
UniProt Q8WU10: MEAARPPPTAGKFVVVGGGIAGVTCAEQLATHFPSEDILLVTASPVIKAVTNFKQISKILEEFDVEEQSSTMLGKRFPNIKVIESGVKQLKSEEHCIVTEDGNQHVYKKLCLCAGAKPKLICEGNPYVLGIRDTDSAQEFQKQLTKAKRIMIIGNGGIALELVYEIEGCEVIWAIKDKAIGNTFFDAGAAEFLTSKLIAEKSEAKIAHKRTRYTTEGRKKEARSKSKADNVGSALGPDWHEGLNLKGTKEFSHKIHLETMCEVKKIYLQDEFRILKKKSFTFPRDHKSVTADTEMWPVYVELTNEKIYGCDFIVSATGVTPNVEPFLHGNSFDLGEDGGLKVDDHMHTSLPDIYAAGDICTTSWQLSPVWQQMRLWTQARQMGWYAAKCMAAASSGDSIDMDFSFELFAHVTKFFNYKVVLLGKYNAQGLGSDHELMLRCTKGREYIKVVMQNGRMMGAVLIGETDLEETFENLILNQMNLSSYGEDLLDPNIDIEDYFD
UniProt Q8NDX1: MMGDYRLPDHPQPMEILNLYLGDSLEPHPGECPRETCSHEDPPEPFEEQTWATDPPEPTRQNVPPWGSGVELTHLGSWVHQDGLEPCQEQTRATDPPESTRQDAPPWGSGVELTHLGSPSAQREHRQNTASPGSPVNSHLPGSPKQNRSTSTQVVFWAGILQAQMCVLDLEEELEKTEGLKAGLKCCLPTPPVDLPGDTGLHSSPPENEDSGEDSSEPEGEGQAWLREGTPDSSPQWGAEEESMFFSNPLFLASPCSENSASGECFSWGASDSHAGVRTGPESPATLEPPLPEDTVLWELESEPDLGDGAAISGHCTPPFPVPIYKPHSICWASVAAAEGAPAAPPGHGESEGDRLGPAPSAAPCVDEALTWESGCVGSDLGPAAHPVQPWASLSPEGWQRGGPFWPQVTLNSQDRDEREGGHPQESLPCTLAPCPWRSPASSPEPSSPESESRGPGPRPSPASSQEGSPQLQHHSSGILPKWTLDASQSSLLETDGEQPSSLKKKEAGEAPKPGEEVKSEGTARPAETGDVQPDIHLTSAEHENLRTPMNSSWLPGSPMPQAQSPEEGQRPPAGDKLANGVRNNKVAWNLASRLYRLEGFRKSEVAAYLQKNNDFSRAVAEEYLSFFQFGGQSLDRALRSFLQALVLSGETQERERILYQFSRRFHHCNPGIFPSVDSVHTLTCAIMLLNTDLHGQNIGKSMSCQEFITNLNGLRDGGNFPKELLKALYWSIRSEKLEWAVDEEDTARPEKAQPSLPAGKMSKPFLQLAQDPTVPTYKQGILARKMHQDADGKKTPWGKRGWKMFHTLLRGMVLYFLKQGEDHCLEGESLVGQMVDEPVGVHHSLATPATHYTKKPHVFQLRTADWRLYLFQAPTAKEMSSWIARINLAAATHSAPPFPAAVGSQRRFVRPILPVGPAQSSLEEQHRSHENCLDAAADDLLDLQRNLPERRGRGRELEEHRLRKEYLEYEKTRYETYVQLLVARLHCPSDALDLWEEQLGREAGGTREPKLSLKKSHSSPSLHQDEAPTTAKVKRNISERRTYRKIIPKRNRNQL
UniProt O14818: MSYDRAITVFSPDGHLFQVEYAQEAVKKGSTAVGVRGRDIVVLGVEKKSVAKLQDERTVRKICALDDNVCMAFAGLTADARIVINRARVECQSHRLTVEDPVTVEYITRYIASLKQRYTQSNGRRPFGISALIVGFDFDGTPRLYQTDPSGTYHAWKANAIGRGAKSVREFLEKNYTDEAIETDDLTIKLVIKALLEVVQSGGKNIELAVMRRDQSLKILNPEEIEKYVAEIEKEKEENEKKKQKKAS
UniProt Q92932: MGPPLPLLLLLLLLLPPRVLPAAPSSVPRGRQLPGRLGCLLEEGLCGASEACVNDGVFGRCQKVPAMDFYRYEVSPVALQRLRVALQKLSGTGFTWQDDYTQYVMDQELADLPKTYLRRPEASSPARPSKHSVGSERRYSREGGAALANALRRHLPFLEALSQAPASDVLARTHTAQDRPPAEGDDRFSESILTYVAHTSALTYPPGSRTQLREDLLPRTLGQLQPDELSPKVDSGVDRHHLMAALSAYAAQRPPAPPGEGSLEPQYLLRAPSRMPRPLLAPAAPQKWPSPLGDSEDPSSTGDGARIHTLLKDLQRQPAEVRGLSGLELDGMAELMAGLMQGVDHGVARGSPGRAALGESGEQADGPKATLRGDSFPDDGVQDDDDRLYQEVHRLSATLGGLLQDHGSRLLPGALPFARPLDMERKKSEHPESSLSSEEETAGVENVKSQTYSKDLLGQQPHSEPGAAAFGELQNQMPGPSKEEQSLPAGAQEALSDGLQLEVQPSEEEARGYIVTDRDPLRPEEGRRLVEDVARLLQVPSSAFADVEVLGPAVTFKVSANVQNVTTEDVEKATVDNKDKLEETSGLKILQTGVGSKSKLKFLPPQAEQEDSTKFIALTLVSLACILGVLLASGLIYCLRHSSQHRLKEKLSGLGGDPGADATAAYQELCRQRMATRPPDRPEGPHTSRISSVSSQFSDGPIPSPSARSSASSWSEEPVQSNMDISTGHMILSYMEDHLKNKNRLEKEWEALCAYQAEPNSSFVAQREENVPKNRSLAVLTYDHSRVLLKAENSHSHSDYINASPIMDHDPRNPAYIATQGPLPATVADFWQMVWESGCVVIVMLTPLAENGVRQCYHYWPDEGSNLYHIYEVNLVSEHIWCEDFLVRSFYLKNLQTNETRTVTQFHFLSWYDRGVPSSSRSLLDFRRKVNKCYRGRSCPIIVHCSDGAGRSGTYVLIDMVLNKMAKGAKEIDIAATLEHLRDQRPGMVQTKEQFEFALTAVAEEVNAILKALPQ
UniProt Q9UHX1: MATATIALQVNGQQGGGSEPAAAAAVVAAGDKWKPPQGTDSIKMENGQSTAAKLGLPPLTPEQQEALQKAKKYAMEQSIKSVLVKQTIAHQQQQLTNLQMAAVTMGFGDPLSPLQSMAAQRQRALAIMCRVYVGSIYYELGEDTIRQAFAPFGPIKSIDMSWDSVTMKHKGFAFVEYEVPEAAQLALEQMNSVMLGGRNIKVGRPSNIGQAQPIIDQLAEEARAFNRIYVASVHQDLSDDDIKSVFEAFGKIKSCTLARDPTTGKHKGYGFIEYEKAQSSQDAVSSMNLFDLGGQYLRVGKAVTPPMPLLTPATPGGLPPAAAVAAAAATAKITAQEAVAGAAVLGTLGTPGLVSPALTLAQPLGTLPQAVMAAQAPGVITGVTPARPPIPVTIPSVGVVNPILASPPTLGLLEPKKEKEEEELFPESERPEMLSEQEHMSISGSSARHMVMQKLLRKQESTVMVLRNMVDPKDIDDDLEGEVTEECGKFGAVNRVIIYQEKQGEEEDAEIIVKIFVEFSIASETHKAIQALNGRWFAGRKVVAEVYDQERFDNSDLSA
UniProt P40306: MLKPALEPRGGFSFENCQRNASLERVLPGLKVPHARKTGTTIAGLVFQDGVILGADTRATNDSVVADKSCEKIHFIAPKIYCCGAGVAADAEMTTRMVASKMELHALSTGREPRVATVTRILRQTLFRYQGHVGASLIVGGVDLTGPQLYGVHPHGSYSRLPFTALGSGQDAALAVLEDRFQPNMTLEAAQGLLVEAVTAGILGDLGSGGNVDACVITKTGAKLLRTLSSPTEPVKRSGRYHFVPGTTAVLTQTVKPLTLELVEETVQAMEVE
UniProt P43378: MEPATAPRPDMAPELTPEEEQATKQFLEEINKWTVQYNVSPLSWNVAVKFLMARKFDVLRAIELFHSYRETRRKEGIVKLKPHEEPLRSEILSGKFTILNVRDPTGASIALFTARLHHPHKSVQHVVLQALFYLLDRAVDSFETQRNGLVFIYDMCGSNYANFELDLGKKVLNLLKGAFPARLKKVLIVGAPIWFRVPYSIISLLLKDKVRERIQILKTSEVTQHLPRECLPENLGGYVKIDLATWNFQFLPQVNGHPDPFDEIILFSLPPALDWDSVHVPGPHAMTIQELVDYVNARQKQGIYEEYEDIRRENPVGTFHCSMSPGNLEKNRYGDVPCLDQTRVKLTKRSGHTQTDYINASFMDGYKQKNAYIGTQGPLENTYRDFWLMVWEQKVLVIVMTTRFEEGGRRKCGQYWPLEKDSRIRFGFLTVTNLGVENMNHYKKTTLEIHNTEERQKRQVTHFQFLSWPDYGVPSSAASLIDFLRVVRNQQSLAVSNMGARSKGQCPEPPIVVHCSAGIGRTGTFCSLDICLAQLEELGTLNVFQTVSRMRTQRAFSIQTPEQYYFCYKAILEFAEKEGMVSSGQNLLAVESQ
UniProt P28062: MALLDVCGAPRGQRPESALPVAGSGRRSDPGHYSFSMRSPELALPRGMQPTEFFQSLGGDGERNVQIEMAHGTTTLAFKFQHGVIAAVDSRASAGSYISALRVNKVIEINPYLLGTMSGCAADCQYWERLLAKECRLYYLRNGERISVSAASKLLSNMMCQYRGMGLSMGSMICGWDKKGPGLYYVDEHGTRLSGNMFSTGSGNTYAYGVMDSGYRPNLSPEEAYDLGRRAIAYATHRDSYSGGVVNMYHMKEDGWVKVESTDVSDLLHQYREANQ

Experiments:
Test in all cases: log2 fold change, soluble protein after heating vs DMSO (PISA); higher = thermal stabilisation; K562 cells, 10 uM, 30 min; active = over 0.2 and 3.5 SD of the protein, either way, in both replicates (recomputed)
bafetinib = compound: Cc1ccc(NC(=O)c2ccc(CN3CC[C@H](N(C)C)C3)c(C(F)(F)F)c2)cc1Nc1nccc(-c2cncnc2)n1 [bafetinib]
Outline: (§1)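 K562 cells at 2×10^6 cells/mL were treated with 10 μM compound for 30 min. Aliquots were heated for 3 min across 48°C-58°C, pooled, and extracted in PBS with 0.5% NP-40 at 4°C; soluble protein was the supernatant after 21,000xg for 90 min. Soluble protein was quantified by TMTpro 16plex LC-MS/MS with channel sums equalised, and reported as log2 fold change in thermal stability against DMSO controls, with values from duplicates.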

dasatinib = compound: Cc1nc(Nc2ncc(C(=O)Nc3c(C)cccc3Cl)s2)cc(N2CCN(CCO)CC2)n1 [dasatinib]
Outline: as §1

mubritinib = compound: FC(F)(F)c1ccc(/C=C/c2nc(COc3ccc(CCCCn4ccnn4)cc3)co2)cc1 [mubritinib]
Outline: as §1

[1] = compound: Cc1cccc(CC(=O)N2CCc3c2ccc(-c2cn(C)c4ncnc(N)c24)c3F)n1
Outline: as §1

tipifarnib = compound: Cn1cncc1[C@@](N)(c1ccc(Cl)cc1)c1ccc2c(c1)c(-c1cccc(Cl)c1)cc(=O)n2C [tipifarnib]
Outline: as §1

[2] = compound: Cn1cc(-c2ccc3nnc(C(F)(F)c4ccc5ncccc5c4)n3n2)cn1
Outline: as §1

nilotinib = compound: Cc1cn(-c2cc(NC(=O)c3ccc(C)c(Nc4nccc(-c5cccnc5)n4)c3)cc(C(F)(F)F)c2)cn1 [nilotinib]
Outline: as §1

[3] = compound: Cc1nc(Nc2n[nH]c3c2CN(C(=O)N[C@H](CN(C)C)c2ccccc2)C3(C)C)c2sccc2n1
Outline: as §1

[4] = compound: Cc1ncc(-c2ccnc(Nc3ccc(S(C)(=O)=O)cc3)n2)n1C(C)C
Outline: as §1

[5] = compound: Cn1cc(-c2ccc3c(c2)CCN3C(=O)Cc2cccc(C(F)(F)F)c2)c2c(N)ncnc21
Outline: as §1

Measured: log2 fold change

PSMC3 (UniProt E9PLG2)
inactive: bafetinib 0.147 | dasatinib 0.258 | mubritinib 0.059

PTBP2 isoform 3 (UniProt Q9UKA9)
inactive: [1] 0.009 | tipifarnib 0.162

PTGER3 isoform 2 (UniProt P43115)
inactive: [2] -0.098

R3HCC1 (UniProt Q9Y3T6)
inactive: [1] -0.071 | nilotinib -0.068 | [3] -0.261 | [4] -0.276 | [5] -0.092 | [2] -0.246 | tipifarnib -0.03

PYROXD1 (UniProt Q8WU10)
inactive: bafetinib -0.048 | nilotinib -0.072 | [3] 0.032 | dasatinib -0.07 | [4] 0.057 | [5] -0.042 | [2] -0.358 | tipifarnib -0.176 | mubritinib 0.111

PSD4 (UniProt Q8NDX1)
inactive: nilotinib 0 | [3] -0.488 | dasatinib -0.14 | [4] 0.164 | [5] -0.042 | [2] -0.021

PSEN2 (UniProt P49810)
inactive: [1] -0.033 | dasatinib 0.281 | [2] 0.06 | mubritinib -0.03

PSMA7 isoform 2 (UniProt O14818)
inactive: bafetinib -0.164 | nilotinib -0.24 | [3] 0.226 | [4] -0.082 | [5] -0.045 | tipifarnib 0.208 | mubritinib -0.204

PTPRN2 isoform 3 (UniProt Q92932)
inactive: bafetinib -0.179 | nilotinib 0.165 | [3] -0.023 | dasatinib 0.037 | [4] -0.056 | [5] 0.349 | mubritinib 0.357

PUF60 isoform 2 (UniProt Q9UHX1)
inactive: bafetinib -0.089 | dasatinib -0.173 | [5] 0.043 | [2] -0.103 | tipifarnib -0.159 | mubritinib -0.257

PSMC1 (UniProt G3V4X1)
inactive: [1] -0.579 | nilotinib -0.195 | [3] 0.042 | [4] -0.046 | [5] 0.066 | tipifarnib 0.479

PSMB10 (UniProt P40306)
inactive: nilotinib 0.126 | [3] 0.025 | [4] -0.015 | tipifarnib 0.033 | mubritinib 0.039

PTPN9 (UniProt P43378)
inactive: [1] 0.039 | dasatinib -0.054 | mubritinib -0.312

PSMB8 (UniProt P28062)
inactive: [1] 0.034 | nilotinib 0.047 | [3] -0.067 | [4] 0.108 | [5] -0.055

PSMD8 (UniProt K7EK21)
inactive: [5] -0.216
